Data as given in publication PMC6971923.
Results are given in words; binding and its absence hold for the method and conditions named. In cells and extracts the contact can be indirect. Binding can be weak; no strength is given.

Target: C-terminal GFP-tagged version of full-length Dg (dystroglycan) (Drosophila)
Experiment: co-IP; Dg::GFP captured on GFP-Trap beads from whole lysates of about 1-week-old flies in RIPA buffer (1.3 mg supernatant); western blot with anti-Laminin (LanB2), anti-Hts or anti-Kibra

| binding | Binder |
| --- | --- |
| binds | Kibra (Kbr), Drosophila (protein, UniProt Q9VFG8 1-1288) MPNLQQTASQSQHHLHPHHLRPQQQQQQHHHHHQQQQQQQHTHHQQQQQHHSDFPLPDGWDIAKDFDGKTYYIDHINKKTTWLDPRDCYTKPQTFEDCVGDELPMGWEESYDPNIGPYYINHLAQSTQLEDPRQEWKTVQEQMLSDYLSAAQDQLENKREMFDVKQQRLLWAQEEYNHLKLAASRSSLCSSSSSMSRHDPELLRADLMLARERVHQLKQELTHITNDISYTERGMNTLYSVGEKINARENGCYDIAEVHAIREEMLKVHKSLVSGEKVREELMRSLVQIKNELGRQQISEENSDLASPFDRVCVASQTDLCGSSGENLNGGARFAEMAKTKWQYAEWRKHIKKLQQQLADHVERIEPGQLESDKDRILLIQEKEKLLNDLNSISLKSRSEEEKRVIHQTRHKLEEDLKEAYEANNTCVANRLRFHEEKQLLLDKLQEALKSTKLLEERLKSFSSESTFSISSGSSLGSLSTASSKSALSFTDIYIDPFAVDSPIDVVDLRRRSQRLFQQHQQQRLHPVHPVLQQQQSAEVTLSPRSSLSMETPPASPMKYNAGADQTPQALKEEPTYANALPAPPAYTAPPPVPISGVRARPYDLDSTVLDCMMLEAKLQKLNMGTPLNLAVAPLSPISEKPSLLDLPQEMLSRSSSTSNTRSVSAAVSNESVAGDSGVFEASRAHLPRKELAQVQIGLKYLKQEGVLVVSLERANNLLALWTASADNSQVYLRAALLPNSLTSIRTKALGDFQKPVFNDTFAVPITLDKLLTKSLQVTVVTMTGQKEEIIGTVQISMAEFNPEDSTLKWYNVLSSKFIPSFESLDIPSTSAAAAAAAVAASNAPNPGNNREESSDESTITSSQTSTLTRNQAPCMELQEQMAAELLGLGPLNEPECSDDDDDDEEEELDDKQLVSDVGLMNSSSMLHAYLQNMKQEFADKETNTDRAYLPEKSRGQSQLMDDRPVKRSQTFTPSEAFSKNRYNCRLNRSDSDSAMHCGVAPHTFQRGAAERRSLRFHSKAPKSVTKLHHTHIPRTSLDLELDLQAQHSKLYFLNDQIAKLQNLKEVLQKACENKDPLVAAWAIENEEFQRLVARADPAKCPEERQLQKLLMKTAKEIHKLRKTKVPKGCPDLVSFKEKITFFTRKGLSVPELPSEFTLPEANPIEEEEEEEDENEFYNSAETAIAINTALVASSNRNKNLSEHPHRATSGAVPKIPAPVVTPAATPAATPAATPAATSAATPAATPVVSPAAQPDAKPADAPIPVASNDAEQQRFDYVVDRNYGVEV |
| binds | Hts/Add (Hu li tai shao/Adducin) (protein, UniProt Q02645 1-1156) MTEVEQPPQNGIDPTAGEDDDNSKARPADIEQDMREMERRKRVEAIMGSKLFREELERIVDSARDGGAGASGILQQLSDIVGVPVSRVGSVFKSSNCMVPINDIRGVESMGYAKGEKILRCKLAATFRLLDLYGWTQGLGAQITARLKVDQEYFLVNPYGLLYHEITASALNKVDMQGQIVEQGTTNFGGNKSHFVLHSVVHAARPDIRCAIYIGCSPVVAISSLKTGLLPLTKDACVLGEITTHAYTGLFDEEERNRLVRSLGPNSKVILLTNHGALCCGETIEEAFFAACHIVQACETQLKLLPVGLDNLVLIPEESRKAIYEQSRRPPEDLEKKFAAVAAAEDGAATAEKDAAEAVPKVGSPPKWRVGGAEFEALMRMLDNAGYRTGYIYRHPLIKSDPPKPKNDVELPPAVSSLGYLLEEEELFRQGIWKKGDIRKGGDRSRWLNSPNVYQKVEVLETGTPDPKKITKWVAEGSPTHSTPVRIEDPLQFVPAGTNPREFKRVQQLIKDNRRADKISAGPQSHILEGVTWDEASRLKDATVSQAGDHVVMMGAASKGIIQRGFQHNATVYKAPYAKNPFDNVTDDELNEYKRTVERKKKSVHGEYTDTDFSESEAVLQAGTKKYPQSEPETEHQVIEIQTQQAPVPRQAEVVLSDALVSQLAQKYAFLYSPGQYMYACMKMAPLMHKVYVIHKVEPVSKHNYPPVNDGNMSIHHNESGAGFMAQESSVISSTPVRNALASVSLPEERNHSILGLSSTPYRTISHFGFNCPLITSPTILLHPEHRSIWQRVAEQREKVVSFIDLTTLSLDNRKLLNVVTSTHPTQCQSQSQSFISEKHIQLEVTPPKRKQRVYSATISSGLDDSLDELDSLMSGLAINMPRSREQDSGLYRSYTFLPSNHALPKDTDANNRDQTDRERPEAEQEESFHCAGDSGIGDSTGRRPRLATTSNDSSIQEAEAYTQGKHVKLTLSSSPTPTATQSPATIEILINVSLRNAECVQTVQTHEQEFRAKLERVIDEEIHYISQQLAFKQRQAELHEQQTTSRAPIATPSFTTMHPPAPASSSSMVHRSNSAPELCHTYSYVAVGDLSTKQDQASPQLPAEGEPLNDILSSLEKELERLLNSVVTAHMLHNKAIIHECRARFSQLADGIVSS |
